# Source: the supplement of paper PMC10849652
# The chains behind the UniProt entries cited, without tags or fusion partners. Where a name states a change or a piece, a line headed by the entry shows the natural chain unless it says otherwise.
# UniProt Q8WVC6: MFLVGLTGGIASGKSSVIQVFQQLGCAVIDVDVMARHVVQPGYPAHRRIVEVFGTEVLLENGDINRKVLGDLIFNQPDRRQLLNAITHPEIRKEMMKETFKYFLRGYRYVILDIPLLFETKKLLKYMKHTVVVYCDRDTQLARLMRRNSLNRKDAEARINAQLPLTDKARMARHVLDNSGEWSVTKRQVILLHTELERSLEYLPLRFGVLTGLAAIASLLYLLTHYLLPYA
# UniProt Q8IWE4: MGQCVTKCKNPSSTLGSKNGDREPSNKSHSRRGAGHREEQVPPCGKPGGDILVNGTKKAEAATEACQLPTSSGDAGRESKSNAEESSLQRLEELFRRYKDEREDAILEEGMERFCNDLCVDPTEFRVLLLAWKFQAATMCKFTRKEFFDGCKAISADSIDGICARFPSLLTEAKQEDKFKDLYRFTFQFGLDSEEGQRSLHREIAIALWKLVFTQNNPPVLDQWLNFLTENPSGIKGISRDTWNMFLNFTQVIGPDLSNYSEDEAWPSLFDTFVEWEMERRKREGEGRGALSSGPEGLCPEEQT
# UniProt P53355: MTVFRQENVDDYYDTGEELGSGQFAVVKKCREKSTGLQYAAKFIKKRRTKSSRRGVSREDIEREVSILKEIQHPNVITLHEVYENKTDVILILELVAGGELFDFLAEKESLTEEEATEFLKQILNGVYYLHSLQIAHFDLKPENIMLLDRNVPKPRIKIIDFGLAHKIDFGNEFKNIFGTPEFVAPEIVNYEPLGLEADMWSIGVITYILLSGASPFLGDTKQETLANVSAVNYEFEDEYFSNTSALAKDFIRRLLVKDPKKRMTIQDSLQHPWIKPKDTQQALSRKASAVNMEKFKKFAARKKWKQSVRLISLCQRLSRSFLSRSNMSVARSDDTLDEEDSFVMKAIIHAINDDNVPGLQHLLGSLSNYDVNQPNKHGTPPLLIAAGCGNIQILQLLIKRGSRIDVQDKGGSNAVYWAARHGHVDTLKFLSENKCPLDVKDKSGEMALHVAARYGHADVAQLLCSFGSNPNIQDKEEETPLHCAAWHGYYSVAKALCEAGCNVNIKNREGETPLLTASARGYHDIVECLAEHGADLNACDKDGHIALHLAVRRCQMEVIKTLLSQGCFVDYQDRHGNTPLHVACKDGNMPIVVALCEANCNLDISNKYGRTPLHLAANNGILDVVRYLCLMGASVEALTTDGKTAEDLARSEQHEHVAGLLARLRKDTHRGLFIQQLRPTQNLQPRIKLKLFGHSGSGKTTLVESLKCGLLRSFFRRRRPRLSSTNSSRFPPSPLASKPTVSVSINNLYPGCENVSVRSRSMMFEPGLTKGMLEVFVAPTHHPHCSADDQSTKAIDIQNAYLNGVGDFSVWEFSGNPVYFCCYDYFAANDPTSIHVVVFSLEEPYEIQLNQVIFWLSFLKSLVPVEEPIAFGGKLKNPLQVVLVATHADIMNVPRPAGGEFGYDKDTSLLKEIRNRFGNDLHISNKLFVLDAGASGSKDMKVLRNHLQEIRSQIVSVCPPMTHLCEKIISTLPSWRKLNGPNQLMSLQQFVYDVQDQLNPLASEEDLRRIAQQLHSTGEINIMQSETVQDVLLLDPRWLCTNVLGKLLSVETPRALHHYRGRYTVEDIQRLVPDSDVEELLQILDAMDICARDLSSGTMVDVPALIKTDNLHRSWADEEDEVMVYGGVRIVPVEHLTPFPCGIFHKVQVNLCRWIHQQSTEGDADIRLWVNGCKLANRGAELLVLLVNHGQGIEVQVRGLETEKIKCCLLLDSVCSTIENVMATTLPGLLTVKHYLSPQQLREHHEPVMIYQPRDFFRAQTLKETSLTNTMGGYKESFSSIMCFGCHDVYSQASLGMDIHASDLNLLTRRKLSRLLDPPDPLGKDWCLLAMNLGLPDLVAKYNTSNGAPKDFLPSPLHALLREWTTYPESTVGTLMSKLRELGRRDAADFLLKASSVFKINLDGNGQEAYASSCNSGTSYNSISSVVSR
# UniProt Q96PD2: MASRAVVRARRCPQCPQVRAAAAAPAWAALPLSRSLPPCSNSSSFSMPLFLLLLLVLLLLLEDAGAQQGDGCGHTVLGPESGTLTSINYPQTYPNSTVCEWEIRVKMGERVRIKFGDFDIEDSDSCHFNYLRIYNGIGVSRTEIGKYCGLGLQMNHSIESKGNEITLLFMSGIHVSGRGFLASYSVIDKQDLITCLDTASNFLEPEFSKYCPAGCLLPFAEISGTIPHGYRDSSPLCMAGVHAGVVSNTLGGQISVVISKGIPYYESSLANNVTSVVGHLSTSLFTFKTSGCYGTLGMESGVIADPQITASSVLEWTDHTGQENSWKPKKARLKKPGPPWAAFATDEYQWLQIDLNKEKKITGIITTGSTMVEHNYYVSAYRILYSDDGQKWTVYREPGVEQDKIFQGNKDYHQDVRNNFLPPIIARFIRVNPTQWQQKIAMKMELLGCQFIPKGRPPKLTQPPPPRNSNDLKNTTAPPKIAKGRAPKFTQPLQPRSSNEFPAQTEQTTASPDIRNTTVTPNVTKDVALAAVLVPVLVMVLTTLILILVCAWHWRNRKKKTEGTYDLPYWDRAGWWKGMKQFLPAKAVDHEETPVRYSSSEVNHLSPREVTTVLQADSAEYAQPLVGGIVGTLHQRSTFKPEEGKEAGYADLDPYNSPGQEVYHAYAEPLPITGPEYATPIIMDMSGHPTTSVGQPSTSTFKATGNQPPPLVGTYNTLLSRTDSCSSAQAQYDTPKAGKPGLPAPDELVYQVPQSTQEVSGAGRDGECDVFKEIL
# UniProt P35638, whole entry, looked up: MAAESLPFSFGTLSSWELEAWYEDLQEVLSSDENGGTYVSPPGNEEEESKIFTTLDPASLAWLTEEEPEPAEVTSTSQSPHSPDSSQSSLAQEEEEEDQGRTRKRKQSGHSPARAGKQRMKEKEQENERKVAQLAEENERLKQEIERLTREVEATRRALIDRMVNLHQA
# UniProt Q15438: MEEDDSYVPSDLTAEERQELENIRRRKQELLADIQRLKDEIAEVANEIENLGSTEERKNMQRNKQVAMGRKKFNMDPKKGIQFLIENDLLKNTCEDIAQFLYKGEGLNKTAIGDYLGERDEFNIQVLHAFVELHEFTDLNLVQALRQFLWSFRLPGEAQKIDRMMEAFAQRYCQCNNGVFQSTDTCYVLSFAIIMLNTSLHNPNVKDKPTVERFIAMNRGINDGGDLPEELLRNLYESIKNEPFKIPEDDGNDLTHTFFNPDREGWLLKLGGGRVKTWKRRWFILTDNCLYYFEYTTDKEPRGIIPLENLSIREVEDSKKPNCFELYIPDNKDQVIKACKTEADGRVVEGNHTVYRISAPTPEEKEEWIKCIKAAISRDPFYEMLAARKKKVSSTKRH
# UniProt Q8WUY9, whole entry, looked up: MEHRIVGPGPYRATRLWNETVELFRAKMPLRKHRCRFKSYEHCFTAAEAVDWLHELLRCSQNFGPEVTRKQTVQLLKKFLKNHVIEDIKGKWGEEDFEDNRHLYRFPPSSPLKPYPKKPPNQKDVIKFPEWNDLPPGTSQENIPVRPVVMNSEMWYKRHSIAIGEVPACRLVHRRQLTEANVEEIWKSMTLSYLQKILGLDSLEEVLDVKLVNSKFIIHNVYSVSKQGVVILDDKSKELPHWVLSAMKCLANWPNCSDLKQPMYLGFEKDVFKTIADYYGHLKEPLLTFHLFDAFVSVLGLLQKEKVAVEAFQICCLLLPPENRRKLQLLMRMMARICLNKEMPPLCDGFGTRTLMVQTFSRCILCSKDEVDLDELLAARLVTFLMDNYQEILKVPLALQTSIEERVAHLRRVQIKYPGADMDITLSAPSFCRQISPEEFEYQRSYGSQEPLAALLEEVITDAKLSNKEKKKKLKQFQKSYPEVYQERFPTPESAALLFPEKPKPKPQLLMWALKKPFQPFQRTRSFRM
# UniProt Q99418: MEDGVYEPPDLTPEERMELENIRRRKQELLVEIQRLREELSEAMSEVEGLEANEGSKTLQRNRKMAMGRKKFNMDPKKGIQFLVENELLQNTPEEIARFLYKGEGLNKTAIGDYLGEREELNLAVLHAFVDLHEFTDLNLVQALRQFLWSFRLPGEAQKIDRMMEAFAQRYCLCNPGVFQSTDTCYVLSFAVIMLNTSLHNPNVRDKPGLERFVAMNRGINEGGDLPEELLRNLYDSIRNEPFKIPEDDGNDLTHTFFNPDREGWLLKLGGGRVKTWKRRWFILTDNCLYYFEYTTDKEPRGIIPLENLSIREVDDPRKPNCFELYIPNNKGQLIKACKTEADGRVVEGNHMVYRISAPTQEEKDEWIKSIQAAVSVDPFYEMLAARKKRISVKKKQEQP
# UniProt O75398: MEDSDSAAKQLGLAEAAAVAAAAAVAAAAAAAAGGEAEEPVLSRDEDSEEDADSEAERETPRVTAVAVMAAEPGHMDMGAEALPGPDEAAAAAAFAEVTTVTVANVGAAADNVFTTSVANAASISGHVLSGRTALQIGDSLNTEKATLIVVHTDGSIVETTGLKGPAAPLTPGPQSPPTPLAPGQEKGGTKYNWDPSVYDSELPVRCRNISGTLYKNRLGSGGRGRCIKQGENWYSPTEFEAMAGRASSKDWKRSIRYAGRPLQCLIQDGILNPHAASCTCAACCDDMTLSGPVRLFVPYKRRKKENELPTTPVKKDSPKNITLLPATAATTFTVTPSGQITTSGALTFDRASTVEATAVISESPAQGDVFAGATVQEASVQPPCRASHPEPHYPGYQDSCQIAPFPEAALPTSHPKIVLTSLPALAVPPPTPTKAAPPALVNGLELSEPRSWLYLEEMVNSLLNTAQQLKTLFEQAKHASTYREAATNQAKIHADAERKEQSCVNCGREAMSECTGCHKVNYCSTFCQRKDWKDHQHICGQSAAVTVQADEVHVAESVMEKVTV
# UniProt Q6ZWL3: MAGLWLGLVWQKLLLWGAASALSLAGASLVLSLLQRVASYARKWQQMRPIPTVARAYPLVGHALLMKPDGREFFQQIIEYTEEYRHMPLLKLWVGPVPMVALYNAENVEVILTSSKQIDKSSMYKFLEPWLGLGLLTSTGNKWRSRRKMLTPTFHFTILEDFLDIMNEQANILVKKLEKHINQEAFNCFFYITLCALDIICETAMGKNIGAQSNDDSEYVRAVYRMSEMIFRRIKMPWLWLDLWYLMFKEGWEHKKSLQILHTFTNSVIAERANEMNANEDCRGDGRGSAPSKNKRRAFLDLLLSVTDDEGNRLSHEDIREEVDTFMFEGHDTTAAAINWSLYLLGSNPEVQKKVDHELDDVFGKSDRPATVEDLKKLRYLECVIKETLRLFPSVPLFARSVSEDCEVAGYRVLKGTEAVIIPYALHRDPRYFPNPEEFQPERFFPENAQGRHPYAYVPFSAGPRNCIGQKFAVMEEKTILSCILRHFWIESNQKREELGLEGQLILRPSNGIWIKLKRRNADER
# UniProt Q08345: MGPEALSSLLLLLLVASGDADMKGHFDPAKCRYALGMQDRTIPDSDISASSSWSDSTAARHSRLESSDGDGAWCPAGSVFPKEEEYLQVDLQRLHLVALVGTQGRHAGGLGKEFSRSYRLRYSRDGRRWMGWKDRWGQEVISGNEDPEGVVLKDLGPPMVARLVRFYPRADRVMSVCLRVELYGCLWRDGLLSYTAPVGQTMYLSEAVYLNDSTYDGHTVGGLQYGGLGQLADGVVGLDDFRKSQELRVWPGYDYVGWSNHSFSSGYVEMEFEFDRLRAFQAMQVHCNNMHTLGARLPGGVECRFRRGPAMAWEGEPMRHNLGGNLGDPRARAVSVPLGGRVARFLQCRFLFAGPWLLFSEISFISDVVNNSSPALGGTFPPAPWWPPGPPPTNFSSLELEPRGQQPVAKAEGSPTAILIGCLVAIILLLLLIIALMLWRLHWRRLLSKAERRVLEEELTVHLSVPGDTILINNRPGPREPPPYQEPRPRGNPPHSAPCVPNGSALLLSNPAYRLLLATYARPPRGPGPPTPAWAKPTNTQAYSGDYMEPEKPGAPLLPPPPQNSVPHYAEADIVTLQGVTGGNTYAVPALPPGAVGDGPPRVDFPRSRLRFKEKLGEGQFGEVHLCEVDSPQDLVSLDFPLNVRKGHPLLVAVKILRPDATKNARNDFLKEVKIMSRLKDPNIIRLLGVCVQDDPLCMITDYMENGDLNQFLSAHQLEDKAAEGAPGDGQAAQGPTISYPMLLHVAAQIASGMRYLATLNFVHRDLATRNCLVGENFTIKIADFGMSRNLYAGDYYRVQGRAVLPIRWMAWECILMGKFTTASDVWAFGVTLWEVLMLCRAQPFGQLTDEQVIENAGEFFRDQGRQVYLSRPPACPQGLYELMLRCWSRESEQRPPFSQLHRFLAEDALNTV
# UniProt Q9NX09: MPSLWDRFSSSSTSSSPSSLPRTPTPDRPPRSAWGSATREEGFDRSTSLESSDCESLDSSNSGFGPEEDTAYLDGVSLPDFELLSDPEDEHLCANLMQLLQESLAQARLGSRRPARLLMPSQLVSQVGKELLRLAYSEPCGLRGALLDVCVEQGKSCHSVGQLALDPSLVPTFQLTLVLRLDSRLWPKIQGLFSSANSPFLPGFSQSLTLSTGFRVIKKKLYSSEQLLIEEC
# Some of the results follow.
# How the values were obtained:
# Test in all cases: log2 fold change, soluble protein after heating vs DMSO (PISA); higher = thermal stabilisation; K562 lysate, 10 uM; active = over 0.2 and 3.5 SD of the protein, either way, in both replicates (recomputed)
# [1] = compound: CC1=C2C(=CC=C1)N=C(N(C2=O)C3=CC=CC=C3C)CN4C=NC5=C(N=CN=C54)N
# Outline: (§1)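 Dounce homogenisation of K562 pellets in PBS pH 7.4 with 1 mM MgCl2 produced a crude extract, used at 1 mg/mL protein. Exposure to 10 μM compound lasted 30 min, and aliquots were then heated for 3 min across 48°C-58°C, pooled and brought to 0.5% NP-40 at 4°C. The supernatant after 21,000xg for 90 min was quantified by TMTpro 16plex LC-MS/MS with channel sums equalised. Duplicate values are given as log-two fold change in thermal stability relative to solvent controls.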
# [2] = compound: c1ccc([C@@H]2C[C@H]2NC2CCNCC2)cc1
# Outline: as §1
# [3] = compound: C1=CC=C(C=C1)[C@H](COC2=CC3=C(C=C2)NC(=O)N3)NC(=O)C4=CC=CN(C4=O)CC5=CC(=C(C=C5)F)F
# Outline: as §1
# [4] = compound: CC1=C(SC2=C1C(=N[C@H](C3=NN=C(N32)C)CC(=O)N)C4=CC=C(C=C4)Cl)C
# Outline: as §1
# [5] = compound: Cc1sc2c(c1C)C(c1ccc(Cl)cc1)=N[C@@H](CC(=O)OC(C)(C)C)c1nnc(C)n1-2
# Outline: as §1
target,measurement,setting,value
DCAKD (UniProt Q8WVC6),log2 fold change,[1],inactive: -0.062
DDB1 isoform 2 (UniProt Q16531),log2 fold change,[2],inactive: -0.577
DESI2 (UniProt Q9BSY9),log2 fold change,[1],inactive: -0.142
same,log2 fold change,[2],inactive: -0.038
DCUN1D3 (UniProt Q8IWE4),log2 fold change,[3],inactive: 0.008
same,log2 fold change,[4],inactive: 0.031
same,log2 fold change,[5],inactive: 0.035
same,log2 fold change,[2],inactive: -0.23
DCTN1 isoform 4 (UniProt Q14203),log2 fold change,[1],inactive: 0.013
same,log2 fold change,[5],inactive: -0.13
same,log2 fold change,[2],inactive: -0.452
DENND5A (UniProt Q6IQ26),log2 fold change,[5],inactive: 0.027
DCUN1D1 (UniProt C9JVE2),log2 fold change,[3],inactive: -0.043
same,log2 fold change,[4],inactive: 0.022
same,log2 fold change,[5],inactive: -0.016
DBNL (UniProt Q9UJU6),log2 fold change,[3],inactive: 0.111
same,log2 fold change,[4],inactive: 0.041
same,log2 fold change,[5],inactive: 0.305
same,log2 fold change,[2],inactive: 0.075
DEPDC7 (UniProt Q96QD5),log2 fold change,[2],inactive: 0.066
DAPK1 isoform 3 (UniProt P53355),log2 fold change,[1],inactive: 0.035
same,log2 fold change,[5],inactive: 0.013
same,log2 fold change,[2],inactive: 0.039
DDX11 (UniProt Q96FC9),log2 fold change,[1],inactive: 0.097
same,log2 fold change,[5],inactive: -0.028
same,log2 fold change,[2],inactive: 0.156
CYP4F11 (UniProt Q9HBI6),log2 fold change,[5],inactive: -0.198
same,log2 fold change,[2],inactive: -0.247
DCBLD2 isoform 2 (UniProt Q96PD2),log2 fold change,[5],inactive: 0.041
same,log2 fold change,[2],inactive: 0.068
DDIT3 isoform 2 (UniProt P35638),log2 fold change,[1],inactive: -0.098
DDX28 (UniProt Q9NUL7),log2 fold change,[3],inactive: -0.14
same,log2 fold change,[4],inactive: 0.116
same,log2 fold change,[5],inactive: 0.019
same,log2 fold change,[2],inactive: -0.062
CYTH1 (UniProt Q15438),log2 fold change,[3],inactive: -0.003
same,log2 fold change,[4],inactive: 0.119
same,log2 fold change,[2],inactive: -0.157
DENND5B isoform 2 (UniProt Q6ZUT9),log2 fold change,[3],inactive: -0.06
same,log2 fold change,[4],inactive: 0.075
same,log2 fold change,[5],inactive: -0.246
same,log2 fold change,[2],inactive: -0.136
DEPDC1B (UniProt Q8WUY9),log2 fold change,[1],inactive: 0.082
same,log2 fold change,[5],inactive: 0.023
CYP2R1 (UniProt Q6VVX0),log2 fold change,[1],inactive: -0.001
same,log2 fold change,[5],inactive: -0.076
DALRD3 (UniProt Q5D0E6),log2 fold change,[1],inactive: 0.193
same,log2 fold change,[2],inactive: 0.137
CYP2S1 isoform 2 (UniProt Q96SQ9),log2 fold change,[1],inactive: 0.033
same,log2 fold change,[5],inactive: -0.123
DDX51 (UniProt Q8N8A6),log2 fold change,[5],inactive: 0.065
same,log2 fold change,[2],inactive: 0.034
CYTH2 (UniProt Q99418),log2 fold change,[3],inactive: 0.021
same,log2 fold change,[4],inactive: -0.042
same,log2 fold change,[5],inactive: -0.002
same,log2 fold change,[2],inactive: -0.006
DDX60L (UniProt Q5H9U9),log2 fold change,[5],inactive: -0.086
DAPK2 isoform 2 (UniProt Q9UIK4),log2 fold change,[1],inactive: -0.437
DEAF1 (UniProt O75398),log2 fold change,[5],inactive: 0.02
DEUP1 (UniProt Q05D60),log2 fold change,[3],inactive: -0.072
same,log2 fold change,[4],inactive: -0.069
same,log2 fold change,[5],inactive: -0.198
CYP4V2 (UniProt Q6ZWL3),log2 fold change,[3],inactive: -0.119
same,log2 fold change,[4],inactive: 0.188
same,log2 fold change,[5],inactive: 0.035
DDAH1 (UniProt O94760),log2 fold change,[1],inactive: 0.005
same,log2 fold change,[5],inactive: 0.15
same,log2 fold change,[2],inactive: -0.072
DDR1 isoform 5 (UniProt Q08345),log2 fold change,[3],inactive: -0.1
same,log2 fold change,[4],inactive: 0.057
same,log2 fold change,[5],inactive: -0.09
same,log2 fold change,[2],inactive: 0.135
DAPK3 (UniProt O43293),log2 fold change,[1],inactive: -0.114
same,log2 fold change,[2],inactive: -0.194
DCAF4 (UniProt Q8WV16),log2 fold change,[3],inactive: -0.178
same,log2 fold change,[4],inactive: -0.097
same,log2 fold change,[5],inactive: -0.278
same,log2 fold change,[2],inactive: -0.046
DDIT4 (UniProt Q9NX09),log2 fold change,[1],inactive: 0.004
DBNDD1 isoform 3 (UniProt Q9H9R9),log2 fold change,[5],inactive: -0.183
same,log2 fold change,[2],inactive: -0.044
CYTH3 (UniProt O43739),log2 fold change,[2],inactive: 0.006
DCBLD1 (UniProt Q8N8Z6),log2 fold change,[5],inactive: 0.112
same,log2 fold change,[2],inactive: -0.062
DCAF5 (UniProt Q96JK2),log2 fold change,[1],inactive: -0.206
same,log2 fold change,[5],inactive: 0.087

# Five entries from above, with bars between the fields.
target | measurement | setting | value
DENND5B isoform 2 (UniProt Q6ZUT9) | log2 fold change | [2] | inactive: -0.136
DEPDC1B (UniProt Q8WUY9) | log2 fold change | [1] | inactive: 0.082
same | log2 fold change | [5] | inactive: 0.023
CYP2R1 (UniProt Q6VVX0) | log2 fold change | [1] | inactive: -0.001
same | log2 fold change | [5] | inactive: -0.076
